# Reference: PubChem BioAssay AID493014 (National Center for Advancing Translational Sciences (NCATS), 2011)
# This is one part of the list. These are further read-outs of the screen, such as a control signal, another cell line or another target. No call is given for them. The list favours compounds with an active or inconclusive main result. Words in brackets tell the shape of the fitted curve; partial curves, single points and poor fits give uncertain potencies.
# Assay: qHTS Assay to Find Inhibitors of Chronic Active B-Cell Receptor Signaling
# Conditions: ABC-DLBCL IkBa-CBG/CBR reporter, luminescence ratio (green luciferase fused to IkBa over red control in TMD8 lymphoma cells), 4 h
# How it was run: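 Doxycycline induced both beetle luciferases in TMD8 lymphoma cells; IKK-driven degradation limits the IkappaBalpha-fused green signal, while red luminescence normalises for cell number and nonspecific effects. Compounds tested up to 46 uM, 4 hrs.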
# [1] = measured here: CBR red luminescence, cell number
# [2] = measured here: IkBa-CBG green luminescence
SMILES,AC50 [1],AC50 [2]
COC(=O)c1ccccc1NC(=O)CNc1cc(OC)c(OC)cc1C,"11.6 µM [falling, partial curve, poor fit]",
COc1ccc(C(=O)N[C@H](C(=O)NCCc2ccc3c(c2)OCCO3)C(C)C)cc1,"1.84 µM [rising, partial curve, poor fit]",
Nc1ccc(C(=O)OCC(=O)N2c3ccccc3Sc3ccccc32)cc1[N+](=O)[O-],"32.6 µM [falling, single point]",
O=C1NC2(O)C(=O)c3ccccc3C2(O)N1 (configuration not stated),"22.4 µM [rising, single point]",
CCOC(=O)C(=O)/C(C#N)=C/Nc1ccc(F)cc1,"6.51 µM [falling, full curve]",
CCCCN(CCCC)S(=O)(=O)c1ccc(NC(=O)Cc2cccs2)cc1,"1.64 µM [rising, partial curve, poor fit]",
Cc1ccc(OCC(=O)O/N=C(\N)c2ccccn2)cc1C,"10 µM [falling, partial curve, poor fit]",
C=CCNc1ncnc2c1cnn2-c1ccc(Cl)cc1,"0.058 µM [rising, full curve, poor fit]",
Cc1cc2oc(=O)cc(CN3CCOCC3)c2cc1C(C)C,"20 µM [rising, single point]",
Cc1cccc(NC(=O)Cn2c(=O)n(Cc3ccco3)c(=N)c3c4c(sc32)COC(C)(C)C4)c1,"14.1 µM [falling, single point]",
Cc1cnc(NC(=O)Cc2ccccc2F)s1,"14.1 µM [falling, partial curve, poor fit]",
S=C(Nc1ccccc1)Nc1nc2ccccc2n1CCOc1ccc(Br)cc1,"0.651 µM [rising, full curve, poor fit]",
Cc1cc(C2C(C#N)=C(N)SC(N)=C2C#N)c(C)s1,"29.1 µM [falling, single point]",
CCS(=O)(=O)N1CCCC(C(=O)NCc2ccccc2Cl)C1 (configuration not stated),"29.1 µM [rising, single point]",
O=C(Nc1nc2ccc(F)cc2s1)c1ccccn1,"2.82 µM [falling, full curve]","3.55 µM [falling, full curve]"
Cc1ccc(C(=O)NCCNC(=O)COc2ccccc2Cl)cn1,"0.631 µM [falling, full curve, poor fit]",
COC(=O)Cc1ccc(NC(=O)c2ccccc2Cl)cc1,"11.2 µM [falling, single point]",
COc1ccc(Nc2nc3cc(C)ccc3cc2C#N)cc1,"0.282 µM [rising, full curve, poor fit]",
O=C(O)/C=C/C(=O)Nc1ccc(Oc2ccccc2)cc1,"5.62 µM [rising, full curve, poor fit]",
CCc1cc(CNC(=O)c2ccc3nc(Cc4ccc(OC)c(OC)c4)oc3c2)on1,"35.5 µM [falling, single point]",
O=c1c2ccccc2c(C=Nc2ccccc2O)c(O)n1-c1nccs1,"7.08 µM [falling, partial curve, poor fit]",

SMILES,AC50 [1],AC50 [2]
O=C(CC1C(=O)CCCC1=O)c1ccccc1,"35.5 µM [falling, single point]",
Cc1ccc(NC(=O)C(=O)N2CCCC2)cc1Cl,"0.092 µM [falling, full curve, poor fit]",
CCOC(=O)C1(CCOc2ccccc2)CCN(Cc2ccc(-n3cccn3)cc2)CC1,"3.16 µM [rising, partial curve, poor fit]",
COc1ccc(NS(=O)(=O)c2ccc3c(c2)CCC(=O)N3)cc1O,"3.66 µM [rising, single point]",
CC(=O)c1cc2c(cc1NC(=O)CSc1nc3ccccc3[nH]1)OCO2,,"18.4 µM [rising, partial curve, poor fit]"
O=C(Nc1cc2c(cc1C(=O)O)OCCCO2)c1ccc(F)cc1F,"7.08 µM [falling, full curve]",
CCOC(=O)c1ccc(NC(=O)C2CCCN(S(=O)(=O)c3ccc(F)cc3)C2)cc1 (configuration not stated),"8.2 µM [falling, single point]",
CCOC(=O)C1C(=O)CC(C)(O)C(C(=O)OCC)C1c1ccc(Br)cc1 (configuration not stated),"7.94 µM [falling, partial curve, poor fit]",
O=C(NN=C1C2CC3CC1CC(Cl)(C3)C2)c1ccccn1,"12.6 µM [falling, partial curve]",
CC(=Nc1ccccc1)c1sc2ccccc2c1O,"0.0731 µM [rising, full curve, poor fit]",
COC(=O)COc1ccc(S(=O)(=O)Nc2ccc(C(N)=O)cc2)cc1C,"29.1 µM [falling, single point]",
CC(=O)c1ccc(OCC(O)CN2CCN(CCN3C(=O)c4cccc5cccc(c45)C3=O)CC2)cc1 (configuration not stated),"16.4 µM [falling, partial curve, poor fit]",
O=C1CN(C(=O)c2ccc(Br)o2)C(c2ccccc2)c2cc(Cl)ccc2N1 (configuration not stated),"20 µM [falling, single point]",
CCN1CCN(CCNC(=O)C2CCCN(Cc3nc(-c4cccc(Cl)c4)oc3C)C2)CC1 (configuration not stated),"6.51 µM [rising, single point]",
O=C(COC(=O)c1ccccc1C(=O)OCC(=O)NCCc1c[nH]c2ccccc12)NCCc1c[nH]c2ccccc12,"18.4 µM [falling, partial curve, poor fit]",
O=C(CSc1ccc(Cl)cc1)N/N=C/c1cccnc1,"5.62 µM [rising, partial curve, poor fit]",
O=C(/C=C/c1cn(CC(O)CN2CCCCCC2)c2ccccc12)c1cccs1 (configuration not stated),"29.1 µM [falling, single point]",
O=C(Nc1nccs1)c1cc(-c2ccccn2)nc2c(Cl)cccc12,"2 µM [falling, partial curve, poor fit]",
Cc1ccc(NC(=O)c2ccccc2-c2ccc(C(F)(F)F)cc2)cc1S(=O)(=O)N1CCOCC1,"29.1 µM [falling, single point]",
O=C(N/N=C/c1cccc2cccnc12)[C@H]1C[C@@H]1c1ccccc1,"11.2 µM [falling, single point]",

# Some of the entries above, reformatted:
SMILES	AC50 [1]	AC50 [2]
O=C(CC1C(=O)CCCC1=O)c1ccccc1	35.5 µM [falling, single point]	
Cc1ccc(NC(=O)C(=O)N2CCCC2)cc1Cl	0.092 µM [falling, full curve, poor fit]	
CCOC(=O)C1(CCOc2ccccc2)CCN(Cc2ccc(-n3cccn3)cc2)CC1	3.16 µM [rising, partial curve, poor fit]	
